Test results as given in patent US11446265B2, “Reagents, compositions and methods for improving viability and function of cells, tissues and organs” (TARGA BIOMEDICAL, priority 2016, dated 2022).
For at least one compound, name, drawing or mass did not settle the structure.

Tests used:
isolated perfused heart = system: isolated perfused heart; design: species or system rat
[1] = system: rat mesenchymal stem cells (rMSC); test: rMSC viability after oxidative stress (H2O2, LIVE/DEAD); format: cell-based; conditions: 1-hour treatment, compound alone
Description: (§1) To test the first main condition, MSCs (either sourced from rat or humans) were treated with the candidate pharmaco-optimizers, washed and submitted to hypoxia/serum starvation (<1% O2 in hypoxia chamber in low serum media for 48-72 hours) or oxidative stress (incubation in media for 1 hour spiked with 0-2 mM H2O2), which mimic the major lethal stressors present in the ischemic transplant microenvironment. Viability status of cells are assessed using the LIVE/DEAD viability/cytotoxicity kit (Life Technologies™) and results are quantified by Operetta high content screening (HCS) apparatus equipped with Harmony automated analysis software (Perkin Elmer™).

[2] = LPS-induced endotoxic shock in rat, blood pressure; format: in vivo; conditions: 1 mg/Kg i.p. single injection, LPS 10 mg/kg bolus
kidney of rats = test: Rat renal ischemia/reperfusion, Western blot of kidney; format: in vivo
[3] = system: rat mesenchymal stem cells (rMSC); test: mRNA expression in rMSC by real time PCR; format: cell-based; conditions: 1-hour treatment and 3-hour washout, co-treatment with EGCG or tBHQ
Description: (§2) To test the second main condition, MSCs were treated with the candidate pharmaco-optimizers for 1 hour, followed by 3 hours washout period. Cell mRNA was extracted and expression of genes of interest was quantified by real time PCR. In additional MSC cultures, cells were treated for one hour, washed and cultured in low serum media for 24 hours. The media containing paracrine factors secreted by MSCs was then placed in contact with H9c2 cardiomyoblast cell line. H9c2 cells were then submitted to the hypoxia/serum starvation (<1% O2 in hypoxia chamber in low serum media for 48 hours) or oxidative stress (incubation in media for 1 hour spiked with 0-1 mM H2O2). Viability status of H9c2 cells was evaluated using the LIVE/DEAD assay as detailed above.
Combination Treatments Tested—First Experiment: Celastrol (1 μM) or Gedunin (1 μM)+EGCG (1 μM, 10 μM) or TBHQ (1 μM, 5 μM)

H9c2 rat cardiomyoblasts = conditions: background, Br J Pharmacol 2014; cited from earlier work
[4] = system: rat MSCs in rat ischemic hindlimb; test: Transplant of pre-conditioned rat MSCs into rat ischemic hindlimb (Optix imaging, laser Doppler); format: in vivo
[5] = system: rat mesenchymal stem cells (rMSC); test: rMSC viability after hypoxia/serum starvation (LIVE/DEAD); format: cell-based; conditions: 1-hour treatment, compound alone
Description: as §1

[6] = system: INS-1 insulin producing rat beta cell line; test: INS-1 cell viability after 6 hour hypoxic challenge (PrestoBlue); format: cell-based; conditions: INS-1, 30 minutes preconditioning, 6 hour hypoxia
[7] = background, Br J Pharmacol 2014, cited from earlier work
[8] = system: Pig carotid artery endothelial layer; test: Pig carotid artery rings kept overnight in HBSS, LIVE/DEAD confocal microscopy; conditions: 10E-6M
H9c2 cells = test: H9c2 viability in oxidative stress after pre-conditioning with media from treated rMSC (paracrine); format: cell-based, rat; conditions: 24-hour preconditioning with media from treated rMSC
Description: as §2

[9] = system: bone marrow cells (MSC) of Sprague-Dawley rats; test: In vivo conditioning of rats, isolated MSC challenged with hydrogen peroxide; design: species or system rat; conditions: one or two intraperitoneal injections, 1 mg/kg, 12 hours interval; H2O2 60 minutes
[10] = Rat myocardial ischemia/reperfusion in vivo, echocardiography at 24 h
Description: Rats were randomly assigned to the following groups: Sham (n=6), Vehicle (n=8), Celastrol 1 mg/Kg (n=6) or Celastrol analogs. Under 2% isoflurane anesthesia, baseline echocardiography using a Sonos 5500 Imaging System (Philips, Philips Healthcare, Andover, Mass., USA) with a 12 MHz transducer was performed as described^12. All measures were acquired by the same experienced observer, blinded to the treatment. For each measurement, three to five cardiac cycles were analysed and averaged.
After echocardiography, the animal was intubated and mechanically ventilated, then bupivacaine 2 mg/kg was injected, and a left thoracotomy was performed, exposing the heart. Using a 5-0 silk slipknot, an occlusion of the left anterior descending coronary artery was performed. Visual blanching and electrocardiographic changes confirmed myocardial ischemia. In Sham animals, suture was not ligated. After 30 minutes, the suture occlusion was released. Celastrol, Celastrol analogs or vehicle was injected intraventricularly for acute systemic delivery, then the chest was closed. Buprenorfine (0.05 mg/Kg sc) and carprofen (5 mg/Kg sc) were injected at the end of surgery. Animals were left to recuperate for 24 h, then a second echocardiography was performed. Animals were sacrificed, cardiac tissue was snap frozen, and blood was collected in heparinized tubes, then centrifuged at 4° C. Plasma was collected, snap frozen and kept at −80° C. until analysis.

stem cells = conditions: background, Circulation 2011; cited from earlier work
H9c2 cardiomyoblasts [11] = test: H9c2 viability under hypoxia/serum starvation (LIVE/DEAD); format: cell-based, rat; conditions: 1 uM
Description: For survival to hypoxic challenge and oxidative challenge, H9c2 cardiomyoblasts are submitted to the hypoxia/serum starvation (<1% O2 in hypoxia chamber in low serum media for 48 hours) or oxidative stress (incubation in media for 1 hour spiked with 0-1 mM H2O2). Viability status of H9c2 cells was evaluated using the LIVE/DEAD assay.

H9c2 cardiomyoblasts [12] = test: H9c2 viability under hypoxia/reoxygenation stress; format: cell-based, rat; conditions: 1 uM
Description: Next, the hypoxia/reoxygenation challenge is performed. Briefly, viability analysis was performed in rat H9c2 cardiomyoblasts as previously reported. For hypoxia/reoxygenation stress, cells were cultured in DMEM no glucose (Life Technologies), serum starved and placed in hypoxic conditions (<1% O2) for 18 h. At reoxygenation (normoxic conditions), cells were treated with Celastrol (10^−10 to 10^−6 mol/L, Cayman Chemical, Ann Arbor, Mich.), Celastrol analogs or vehicle (Dimethyl sulfoxide (DMSO), Sigma-Aldrich Canada, Oakville, ON; final concentration<1% v/v) in DMEM high glucose 1% FBS for 1 h, then reoxygenation was continued in DMEM high glucose for an additional 5 h.

[13] = system: rat mesenchymal stem cells (rMSC); test: rMSC viability after freeze/thaw cycle (trypan blue); format: cell-based; conditions: one hour preconditioning (10E-6M) prior to cryopreservation
[14] = system: H9c2 rat cardiomyoblast; human and rat MSC; rat neonatal cardiomyocytes; INS-1; test: Western blot of cytoprotective mediators in various cell types; format: cell-based; conditions: 10^−6M, 5 to 120 min treatment, 0 to 24 hour recuperation
[15] = system: H9c2 cardiomyoblast cell line; test: H9c2 viability in hypoxia after pre-conditioning with media from treated rMSC (paracrine); format: cell-based, rat; conditions: 48-hour pre-conditioning with media from treated rMSC; Gedunin high dose
Description: as §2

[16] = 1 mg/Kg intraventricular, 24 h, vs Vehicle

Q: Which “infarct area measured by TTC stain” value (isolated perfused heart) does the source give for `CC1=C(O)C(=O)C=C2C1=CC=C1[C@@]2(C)CC[C@@]2(C)[C@@H]3C[C@](C)(C(=O)O)CC[C@]3(C)CC[C@]12C` [Celastrol] here?
A: The value was “significantly reduced”.

Q: What about the “I/R-induced systolic dysfunction (+/−dP/dt, generated pressure, EDP, contractility index)” value (isolated perfused heart; 10^−7 mol/L (best dose), vs Vehicle (DMSO)) of the same molecule?
A: Its value is “protected the heart from I/R-induced systolic dysfunction”.

Q: And the “Coronary reserve flow (CRF)” value (isolated perfused heart; 10^−7 mol/L, vs Vehicle (DMSO))?
A: The value was “preserved”.

Q: And the “high sensitivity troponin T (TNT-hs) release” value (isolated perfused heart; 10^−7 mol/L, vs Vehicle (DMSO))?
A: The value was “significantly reduced”.

Q: What about the “protection of rMSCs from oxidative stress induced death” value [1] of the same molecule?
A: The value was “protect”.

Q: What about the “blood pressure after re-injection of LPS” value [2] of the same molecule?
A: The value was “blood pressure is preserved”.

Q: And the “expression of Hsp32 (HO-1) in the kidney” value (kidney of rats; rat, single injection 1 mg/kg, within 60 minutes)?
A: Its value is “induces the expression of Hsp32 (HO-1)”.

Q: What about the “expression of Hsp70 in the non-ligated control kidney (KR)” value (kidney of rats; rats undergoing renal ischemia, 1 mg/kg) of the same molecule?
A: The value was “increases the expression of Hsp70”.

Q: What about the “IL-1β mRNA expression induced by EGCG and tBHQ” value [3] of the same molecule?
A: The value was “downregulate”.

Q: What about the “H9c2 survival under hypoxic stress” value (H9c2 rat cardiomyoblasts) of the same molecule?
A: The value was “improved H9c2 survival under hypoxic stress”.

Q: And the “blood flow reestablishment (laser Doppler scanning)” value ([4]; hindlimb ischemia model, pre-conditioned MSC vs vehicle treated cells)?
A: Its value is “trend for improved blood flow reestablishment”.

Q: And the “in vivo viability and retention of transplanted cells” value ([4]; rat MSCs treated 60 minutes, washed, injected in rat left ischemic hindlimb, imaged until day 9)?
A: Its value is “increases in vivo viability and retention”.

Q: And the “protection of rMSCs from 48-hour hypoxia induced cell death” value [5]?
A: Its value is “protect”.

Q: What about the “cell viability when challenged by lethal hypoxic stress” value [6] of the same molecule?
A: The value was “protects cell viability”.

Q: What about the “cardiac function in rat ischaemic myocardium at day 14” value ([7]; daily treatment) of the same molecule?
A: Its value is “improved cardiac function”.

Q: And the “fibrosis and infarct size” value ([7]; rat MI)?
A: Its value is “inhibited fibrosis and infarct size”.

Q: And the “endothelial layer viability and integrity” value [8]?
A: Its value is “preservation of endothelial layer viability and integrity”.

Q: What about the “protection of H9c2 cells from oxidative stress induced death (paracrine)” value (H9c2 cells) of the same molecule?
A: The value was “no protection”.

Q: What about the “resistance of bone marrow cells to oxidative stress induced death after in vivo conditioning” value [9] of the same molecule?
A: The value was “dose dependently conditions bone marrow cells to withstand oxidative stress induced death”.

Q: And the “tissue expression of cardioprotective HO-1” value ([10]; 1 mg/Kg)?
A: The value was “significant increase”.

Q: What about the “tissue expression of cardioprotective HSP70” value ([10]; 1 mg/Kg) of the same molecule?
A: The value was “significant increase”.

Q: What about the “cardiac output (CO) following I/R injury” value [10, 16] of the same molecule?
A: The value was “preserving”.

Q: And the “ejection fraction (EF) following I/R injury” value [10, 16]?
A: Its value is “preserving”.

Q: And the “fractional shortening (FS) following I/R injury” value [10, 16]?
A: The value was “preserving”.

Q: And the “stroke volume (SV) following I/R injury” value [10, 16]?
A: The value was “preserving”.

Q: What about the “stem cell survival to hypoxic and oxidative conditions” value (stem cells) of the same molecule?
A: The value was “increases stem cell survival”.

Q: And the “protection of H9c2 cardiomyoblasts from hypoxia” value (H9c2 cardiomyoblasts [11])?
A: Its value is “effective”.

Q: What about the “protection of H9c2 cardiomyoblasts from hypoxia/reoxygenation stress” value (H9c2 cardiomyoblasts [12]) of the same molecule?
A: Its value is “effective”.

Q: What about the rMSC viability post-thawing [13] of the same molecule?
A: The rMSC viability post-thawing was “increases rMSC viability post-thawing”.

Q: And the “cytoprotective mediators (pAkt/Akt, pERK/ERK, HO1, HSF1, HSP70) protein expression” value [14]?
A: Its value is “induces cytoprotective mediators”.

Q: What about the “protection of H9c2 from 48-hour hypoxia-induced cell death (paracrine)” value [15] of the same molecule?
A: The value was “protects”.
